The whole screen tested about 320,000 compounds, of which about 22,000 (6.9%) were called active. This list was built around the results that the source calls inconclusive (neither active nor inactive); the mix of calls is not that of the screen. The call rests on the fitted dose curve; in most records, active means well fitted inhibition curve with a large enough effect; inconclusive means small, poorly fitted or top-dose-only effect, or another doubt; inactive means no such curve, though single readings can be large or run the other way. Potencies beside an inconclusive call are fits to weak or partial responses and may not hold up.
Assay: Primary qHTS for delayed death inhibitors of the malarial parasite plastid, 96 hour incubation
Conditions: P. falciparum luciferase reporter growth; series mostly up to 28.7 µM
How it was run: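 Delayed-death screen, second-generation endpoint: infected erythrocytes, 2% hematocrit, 0.05% parasitemia final; 96 hours at 37 C, 5% CO2; luciferase detection reagent; luminescence decrease equals reduced growth.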
Potency means the concentration at half of the fitted maximal effect.

**Q.** Which Potency does the source give for CCOC(=O)CC1C(=O)NCCN1S(=O)(=O)c1ccc(C)cc1 (stereo unspecified) here?
**A.** The Potency was inconclusive: 0.329 µM [inhibitor, full curve, poor fit].

**Q.** With Cc1ccc(-n2ncc(C(=O)Nc3ccc(Cl)cc3)c2C2CCNCC2)cc1C as the molecule, how does the Potency read?
**A.** The Potency was inconclusive: 16.5 µM [inhibitor, partial curve, poor fit].

**Q.** With Cc1onc(-c2ccccc2)c1C(=O)OCC(=O)Nc1cc(S(=O)(=O)N2CCOCC2)ccc1Cl as the molecule, how does the Potency read?
**A.** The Potency was inconclusive: 18.5 µM [inhibitor, single point].

**Q.** For O=C(Nc1cccc(F)c1)c1ccc(S(=O)(=O)N2CCCC2)cc1, which Potency is on record?
**A.** Its Potency is inconclusive: 6.57 µM [inhibitor, partial curve].

**Q.** Which Potency does the source give for Cc1cc(NC(=O)c2ccc(NC(=O)CC(C)C)cc2)no1 here?
**A.** Its Potency is inconclusive: 10.4 µM [inhibitor, partial curve, poor fit].

**Q.** With CC(=O)Nc1sc(C)c(C)c1C(=O)OCC(=O)N(CC(C)C)C1CCS(=O)(=O)C1 (stereo unspecified) as the molecule, how does the Potency read?
**A.** Its Potency is inconclusive: 9.28 µM [inhibitor, partial curve].

**Q.** Which Potency does the source give for COc1ccccc1C(=O)Nc1ccc(OCC(=O)N2CC(C)CC(C)C2)cc1 (stereo unspecified) here?
**A.** The Potency was inconclusive: 4.15 µM [inhibitor, partial curve, poor fit].

**Q.** Which Potency does the source give for Nc1[nH]c2cc([N+](=O)[O-])ccc2c1-c1ccccn1 here?
**A.** Its Potency is inconclusive: 18.5 µM [inhibitor, single point].

**Q.** For O=C1CC(N2CCSCC2)C(=O)N1c1ccc(F)cc1 (stereo unspecified), which Potency is on record?
**A.** The Potency was “inactive”.

**Q.** Which Potency does the source give for CCOC(=O)c1c(NC(=O)c2cccs2)sc(C(=O)N(C)C)c1C here?
**A.** Its Potency is “inactive”.

**Q.** Which Potency does the source give for COc1ccc(NC(=O)CC2C(=O)Nc3ccccc3N2CC(=O)N2CCCC2)cc1 (stereo unspecified) here?
**A.** The Potency was inconclusive: 0.0465 µM [inhibitor, full curve, poor fit].

**Q.** With CC(=O)Nc1ccc2c(c1)CN(c1cc(C)ccc1C)CO2 as the molecule, how does the Potency read?
**A.** The Potency was inconclusive: 18.5 µM [inhibitor, single point].

**Q.** Which Potency does the source give for COc1ccc(/C=N/NC(=O)c2ccc(CN3C(=O)c4cccc5cccc3c45)cc2)cc1O here?
**A.** The Potency was “inactive”.

**Q.** For O=C(Cn1ncc2c3ccccc3n(Cc3ccccc3F)c2c1=O)NC1CC1, which Potency is on record?
**A.** The Potency was inconclusive: 0.329 µM [inhibitor, full curve, poor fit].

**Q.** Which Potency does the source give for CCC(=S)/C=C1\Sc2ccccc2N1CCCS(=O)(=O)O here?
**A.** Its Potency is inconclusive: 18.5 µM [inhibitor, single point].

**Q.** With CCN1CCN(c2ncnc3scc(-c4ccc(C)c(C)c4)c23)CC1 as the molecule, how does the Potency read?
**A.** Its Potency is inconclusive: 11.7 µM [inhibitor, partial curve, poor fit].

**Q.** For CCc1nn(C(C)C(=O)N2CC(C)CC(C)C2)c(=O)c2cc3occc3n12 (stereo unspecified), which Potency is on record?
**A.** The Potency was inconclusive: 18.5 µM [inhibitor, single point].

**Q.** Which Potency does the source give for CC(=O)c1c(C)oc2ccc(N(C(=O)C3CCCCC3)S(=O)(=O)c3cc([N+](=O)[O-])ccc3C)cc12 here?
**A.** The Potency was active: 3.7 µM.

**Q.** With O=C(c1ccccc1)c1ccccc1C(=O)c1ccccc1 as the molecule, how does the Potency read?
**A.** The Potency was inconclusive: 16.5 µM [inhibitor, single point].

**Q.** For O=C(CN1CCCC1)N1CCCc2ccccc21, which Potency is on record?
**A.** The Potency was active: 18.5 µM.

**Q.** Which Potency does the source give for CCC1(C)Cc2nc3[nH]c(=S)n(-c4ccccc4)c(=O)c3cc2CO1 (stereo unspecified) here?
**A.** The Potency was active: 7.38 µM.

**Q.** For CCOC(=O)C1CCCN(Cc2ccc(O)c(OC)c2)C1 (stereo unspecified), which Potency is on record?
**A.** Its Potency is “inactive”.

**Q.** With CCOC(=O)C1=C(O)/C(=C\c2cccs2)N=C1C as the molecule, how does the Potency read?
**A.** The Potency was inconclusive: 18.5 µM [inhibitor, single point].

**Q.** Which Potency does the source give for CCOc1ccc(Cc2c(Cl)nc(N)nc2Cl)cc1 here?
**A.** The Potency was inconclusive: 9.28 µM [inhibitor, partial curve, poor fit].

**Q.** For CCOC(=O)/C(C(N)=NCCCO)=C(/O)c1ccccc1, which Potency is on record?
**A.** Its Potency is inconclusive: 18.5 µM [inhibitor, single point].

**Q.** Which Potency does the source give for Cc1ccc2c(C(=O)CN3CCOCC3)c(C)[nH]c2c1 here?
**A.** Its Potency is “inactive”.

**Q.** With CSCCCNC(=S)Nc1ccc(N2CCOCC2)cc1N1CCOCC1 as the molecule, how does the Potency read?
**A.** The Potency was inconclusive: 18.5 µM [inhibitor, single point].

**Q.** Which Potency does the source give for COc1cccc(N2CCN(S(=O)(=O)c3c(C)[nH]c(C)c3C(=O)N3CCCCC3)CC2)c1 here?
**A.** The Potency was inconclusive: 18.5 µM [inhibitor, single point].

**Q.** With C=CCn1c(N)cc(=O)nc1SCC(=O)Nc1ccc(C(=O)OCC)cc1 as the molecule, how does the Potency read?
**A.** Its Potency is “inactive”.

**Q.** Which Potency does the source give for Cc1cc(C(=O)N/N=C/c2cc(Br)ccc2OC(=O)c2ccc(Br)cc2)n[nH]1 here?
**A.** The Potency was “inactive”.

**Q.** Which Potency does the source give for NP(=O)(Oc1ccccc1Cl)Oc1ccccc1Cl here?
**A.** The Potency was inconclusive: 0.465 µM [inhibitor, full curve, poor fit].

**Q.** With Cc1ccc([N+](=O)[O-])cc1NC(=O)c1cccnc1 as the molecule, how does the Potency read?
**A.** The Potency was active: 10.4 µM.

**Q.** With Cc1ccc(C(=O)N2CCC(C(=O)c3c(C)cc(C)cc3C)CC2)cc1 as the molecule, how does the Potency read?
**A.** The Potency was inconclusive: 13.1 µM [inhibitor, partial curve].

**Q.** With CC(NC(=O)c1ccco1)c1cccc2ccccc12 (stereo unspecified) as the molecule, how does the Potency read?
**A.** The Potency was inconclusive: 7.38 µM [inhibitor, partial curve, poor fit].

**Q.** With CC(C)COc1ccc(-c2nnc(-c3ccco3)o2)cc1 as the molecule, how does the Potency read?
**A.** Its Potency is inconclusive: 4.15 µM [inhibitor, single point].

**Q.** Which Potency does the source give for COc1ccc(C2CC(O)(c3ccccc3)Oc3c(C)ccc(C)c32)cc1 (stereo unspecified) here?
**A.** The Potency was inconclusive: 5.22 µM [inhibitor, partial curve, poor fit].

**Q.** Which Potency does the source give for CCN(CC1CCCO1)C(=O)c1cc(COc2ccc(F)cc2F)on1 (stereo unspecified) here?
**A.** The Potency was “inactive”.

**Q.** For C/C=C(/C)C(=O)O[C@@H]1c2c(ccc3ccc(=O)oc23)O[C@@H]1C(C)(C)OC(=O)/C(C)=C\C, which Potency is on record?
**A.** Its Potency is inconclusive: 18.5 µM [inhibitor, single point].

**Q.** With Nc1nc(NCC2CCCO2)nc(Nc2ccc(F)cc2)c1[N+](=O)[O-] (stereo unspecified) as the molecule, how does the Potency read?
**A.** Its Potency is active: 5.86 µM.

**Q.** With Cn1c(Cc2ccccc2)nnc1SCC(=O)NC1CCCCC1 as the molecule, how does the Potency read?
**A.** The Potency was inconclusive: 7.38 µM [inhibitor, partial curve, poor fit].

**Q.** For CCOCCCNC(=O)C1c2cc(OC)c(OC)cc2C(=O)N2CCCCC12 (stereo unspecified), which Potency is on record?
**A.** The Potency was inconclusive: 0.0093 µM [inhibitor, full curve, poor fit].

**Q.** For O=C(CNC(=O)c1cccs1)NCCN1CCN(c2ccccc2F)CC1, which Potency is on record?
**A.** The Potency was inconclusive: 13.1 µM [inhibitor, single point].

**Q.** Which Potency does the source give for O=C(CN(Cc1ccccc1)C(=O)CNS(=O)(=O)c1ccc(Cl)cc1)NCC1CCCO1 (stereo unspecified) here?
**A.** The Potency was inconclusive: 18.5 µM [inhibitor, single point].

**Q.** With CCc1ccccc1N1CN(Cc2ccco2)CNC1=S as the molecule, how does the Potency read?
**A.** Its Potency is inconclusive: 20.8 µM [inhibitor, single point].

**Q.** For NC(=O)CC(NC(=O)Cc1cccc2ccccc12)c1ccc(N2CCC(N3CCCCC3)CC2)c([N+](=O)[O-])c1 (stereo unspecified), which Potency is on record?
**A.** The Potency was inconclusive: 1.65 µM [inhibitor, partial curve, poor fit].

**Q.** For CSC1=N/C(=C\c2cccnc2)C(=O)N1c1ccccc1, which Potency is on record?
**A.** Its Potency is inconclusive: 6.57 µM [inhibitor, partial curve].

**Q.** For Oc1c(C(c2ccccc2)N2CCN(Cc3ccccc3)CC2)sc2ncnn12 (stereo unspecified), which Potency is on record?
**A.** Its Potency is inconclusive: 18.5 µM [inhibitor, single point].

**Q.** For Cc1nn(-c2ccccc2)c(C)c1/C=N/NC(=O)c1ccccc1NS(=O)(=O)c1cccs1, which Potency is on record?
**A.** Its Potency is inconclusive: 11.7 µM [inhibitor, partial curve].

**Q.** Which Potency does the source give for O=C(NC12CC3CC(CC(C3)C1)C2)N1CCN(c2ccccc2)CC1 here?
**A.** Its Potency is “inactive”.

**Q.** Which Potency does the source give for COc1ccccc1C1c2[nH]c3ccccc3c2CCN1Cc1ccc(NC(C)=O)s1 (stereo unspecified) here?
**A.** The Potency was inconclusive: 4.65 µM [inhibitor, partial curve, poor fit].

**Q.** For O=C(CCC(=O)Nc1cccc([N+](=O)[O-])c1)N/N=C/c1cccs1, which Potency is on record?
**A.** The Potency was inconclusive: 18.5 µM [inhibitor, single point].

**Q.** With CN(C)c1ccc(S(=O)(=O)N2CCCCC2)cc1NC(=O)C1=COCCO1 as the molecule, how does the Potency read?
**A.** Its Potency is inconclusive: 4.15 µM [inhibitor, partial curve, poor fit].

**Q.** For N#Cc1c(N)n(-c2ccc(C(=O)O)cc2)c2nc3ccccc3nc12, which Potency is on record?
**A.** The Potency was “inactive”.

**Q.** Which Potency does the source give for CC(C)c1ccc(-c2cc(C(=O)NN3CCN(C)CC3)c3ccccc3n2)cc1 here?
**A.** The Potency was inconclusive: 18.5 µM [inhibitor, single point].

**Q.** For Cc1cc(CNC(=O)COc2ccc([N+](=O)[O-])cc2)c2ccccc2n1, which Potency is on record?
**A.** The Potency was inconclusive: 18.5 µM [inhibitor, single point].

**Q.** For CC1(C)CC2CC(C)(CN2c2ncnc3ccc(Br)cc23)C1 (stereo unspecified), which Potency is on record?
**A.** Its Potency is active: 16.5 µM.

**Q.** Which Potency does the source give for COc1ccc(C(=O)c2c[nH]c(C(=O)NCc3cccnc3)c2)cc1 here?
**A.** Its Potency is inconclusive: 18.5 µM [inhibitor, single point].

**Q.** With CC(Oc1cc2oc(=O)c3c(c2cc1Cl)CCC3)C(=O)NCCCN1CCCC1=O (stereo unspecified) as the molecule, how does the Potency read?
**A.** The Potency was inconclusive: 16.5 µM [inhibitor, single point].

**Q.** Which Potency does the source give for Cc1[nH]nc2ncc(C(=O)c3cc(Cl)cc(Cl)c3O)cc12 here?
**A.** The Potency was inconclusive: 16.5 µM [inhibitor, single point].

**Q.** For Cc1nc(C)n(C(C)CNS(=O)(=O)c2ccc(Cl)cc2)n1 (stereo unspecified), which Potency is on record?
**A.** Its Potency is “inactive”.

**Q.** Which Potency does the source give for O=C(CCN1C(=O)/C(=C\c2ccccc2Cl)SC1=S)N1CCN(c2ccccc2)CC1 here?
**A.** The Potency was inconclusive: 10.4 µM [inhibitor, partial curve, poor fit].

**Q.** For COc1ccc(Cl)cc1C(=O)OCC(=O)N(CC(C)C)c1c(N)n(Cc2ccccc2)c(=O)[nH]c1=O, which Potency is on record?
**A.** Its Potency is inconclusive: 18.5 µM [inhibitor, single point].

**Q.** Which Potency does the source give for Cc1cc(C(=O)Nc2sc(C)c(-c3ccc(F)cc3)c2C(N)=O)no1 here?
**A.** The Potency was “inactive”.

**Q.** Which Potency does the source give for CC(C)(C)C(O)CN1CCCC1 (stereo unspecified) here?
**A.** Its Potency is inconclusive: 0.465 µM [inhibitor, full curve, poor fit].

**Q.** With COc1ccc2nc(NC(=O)C3CCN(S(=O)(=O)c4cnc[nH]4)CC3)sc2c1 as the molecule, how does the Potency read?
**A.** Its Potency is “inactive”.

**Q.** With CC(CNS(=O)(=O)c1ccc2c(c1)NC(=O)CCS2)c1ccccc1 (stereo unspecified) as the molecule, how does the Potency read?
**A.** The Potency was inconclusive: 14.7 µM [inhibitor, single point].

Reference: PubChem BioAssay AID504834 (National Center for Advancing Translational Sciences (NCATS), 2011)
